Measured values published in publication PMC6274781.

The chains behind the UniProt entries cited, without tags or fusion partners. Where a name states a change or a piece, a line headed by the entry shows the natural chain unless it says otherwise.
UniProt Q9M7X9: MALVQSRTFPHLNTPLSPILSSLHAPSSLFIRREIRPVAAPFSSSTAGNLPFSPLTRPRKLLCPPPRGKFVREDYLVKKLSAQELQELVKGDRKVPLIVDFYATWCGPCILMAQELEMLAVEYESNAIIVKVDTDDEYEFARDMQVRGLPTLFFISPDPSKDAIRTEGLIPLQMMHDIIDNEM
UniProt Q41931: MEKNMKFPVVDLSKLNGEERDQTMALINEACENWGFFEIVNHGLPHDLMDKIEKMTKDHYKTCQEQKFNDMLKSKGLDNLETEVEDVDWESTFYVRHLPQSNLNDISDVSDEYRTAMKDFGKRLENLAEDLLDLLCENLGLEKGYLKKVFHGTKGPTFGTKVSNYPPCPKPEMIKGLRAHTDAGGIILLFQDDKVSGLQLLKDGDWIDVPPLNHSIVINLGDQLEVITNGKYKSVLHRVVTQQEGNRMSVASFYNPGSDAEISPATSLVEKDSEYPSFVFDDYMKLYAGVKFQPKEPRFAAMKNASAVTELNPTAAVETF
UniProt Q6NPF9: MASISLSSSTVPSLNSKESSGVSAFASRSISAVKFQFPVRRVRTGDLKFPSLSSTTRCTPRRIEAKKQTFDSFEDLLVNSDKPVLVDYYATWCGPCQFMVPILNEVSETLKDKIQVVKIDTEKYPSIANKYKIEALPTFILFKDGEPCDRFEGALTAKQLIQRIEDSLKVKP
UniProt Q06588: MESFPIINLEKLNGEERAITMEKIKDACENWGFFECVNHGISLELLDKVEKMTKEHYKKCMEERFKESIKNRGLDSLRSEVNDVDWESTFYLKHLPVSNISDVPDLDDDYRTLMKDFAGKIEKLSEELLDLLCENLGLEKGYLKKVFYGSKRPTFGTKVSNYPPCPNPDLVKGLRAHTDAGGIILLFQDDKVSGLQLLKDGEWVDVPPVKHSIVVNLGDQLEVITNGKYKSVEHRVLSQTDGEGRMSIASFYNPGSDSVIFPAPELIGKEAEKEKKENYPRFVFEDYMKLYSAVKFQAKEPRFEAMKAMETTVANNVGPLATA
UniProt P49597: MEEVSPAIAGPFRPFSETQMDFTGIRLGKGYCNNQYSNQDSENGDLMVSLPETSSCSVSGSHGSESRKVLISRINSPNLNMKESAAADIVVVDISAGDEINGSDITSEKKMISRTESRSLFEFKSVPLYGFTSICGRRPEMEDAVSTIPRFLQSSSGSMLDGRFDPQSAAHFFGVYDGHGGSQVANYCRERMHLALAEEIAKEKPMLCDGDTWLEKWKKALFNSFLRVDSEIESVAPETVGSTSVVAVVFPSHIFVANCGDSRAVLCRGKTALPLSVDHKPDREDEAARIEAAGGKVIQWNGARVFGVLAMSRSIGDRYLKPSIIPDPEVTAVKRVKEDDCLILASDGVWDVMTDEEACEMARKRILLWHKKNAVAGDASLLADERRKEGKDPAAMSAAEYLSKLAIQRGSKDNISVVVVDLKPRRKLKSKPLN

How the values were obtained:
Assay in all cases: two-hybrid; yeast strain Y2H Gold; RcGPXs as bait, Arabidopsis genes as prey (pGBKT7 and pGADT7 vectors); growth on SD-Trp-Leu-His solid media, SD-Trp-Leu as control; empty vectors as negative control
[1] = biological target: Rhodiola crenulata glutathione peroxidase RcGPX2 (Rhodiola crenulata)
[2] = biological target: Rhodiola crenulata glutathione peroxidase RcGPX4 (Rhodiola crenulata)
[3] = biological target: Rhodiola crenulata glutathione peroxidase RcGPX5 (Rhodiola crenulata)
[4] = biological target: Rhodiola crenulata glutathione peroxidase RcGPX7 (Rhodiola crenulata)
[5] = biological target: Rhodiola crenulata glutathione peroxidase RcGPX8 (Rhodiola crenulata)
[6] = biological target: Rhodiola crenulata glutathione peroxidase RcGPX2 (Rhodiola crenulata); remark: listed apart in the source
[7] = biological target: Rhodiola crenulata glutathione peroxidase RcGPX4 (Rhodiola crenulata); remark: listed apart in the source
[8] = biological target: Rhodiola crenulata glutathione peroxidase RcGPX5 (Rhodiola crenulata); remark: listed apart in the source
[9] = biological target: Rhodiola crenulata glutathione peroxidase RcGPX7 (Rhodiola crenulata); remark: listed apart in the source
[10] = biological target: Rhodiola crenulata glutathione peroxidase RcGPX8 (Rhodiola crenulata); remark: listed apart in the source

Q: AtTrxz (from UniProt Q9M7X9) was tested. Which binding [1] did it give?
A: no binding

Q: What about the binding [2] of the same molecule?
A: binds

Q: What about the binding [3] of the same molecule?
A: binds

Q: And the binding [4]?
A: binds

Q: What about the binding [5] of the same molecule?
A: binds

Q: AtACO2 (from UniProt Q41931 1-320) was tested. Which binding [1] did it give?
A: no binding

Q: What about the binding [2] of the same molecule?
A: no binding

Q: And the binding [3]?
A: no binding

Q: What about the binding [4] of the same molecule?
A: no binding

Q: And the binding [5]?
A: no binding

Q: Which binding [1] does the source give for AtTrx1 (from UniProt Q6NPF9) here?
A: no binding

Q: And the binding [2]?
A: no binding

Q: And the binding [3]?
A: no binding

Q: What about the binding [4] of the same molecule?
A: no binding

Q: And the binding [5]?
A: binds

Q: Which results are given for AtACO4 (from UniProt Q06588 1-323)?
A: binding [1]: no binding; binding [2]: no binding; binding [3]: no binding; binding [4]: no binding; binding [5]: no binding

Q: For AtABI1 (from UniProt P49597 1-434), which binding [1] is on record?
A: no binding

Q: What about the binding [2] of the same molecule?
A: no binding

Q: What about the binding [3] of the same molecule?
A: no binding

Q: And the binding [4]?
A: no binding

Q: What about the binding [5] of the same molecule?
A: no binding

Q: For “AtABI2, 2C-type protein phosphatase ABA …2 (from UniProt O04719 1-423)”, which binding [1] is on record?
A: no binding

Q: And the binding [2]?
A: no binding

Q: What about the binding [3] of the same molecule?
A: binds

Q: What about the binding [4] of the same molecule?
A: binds

Q: And the binding [5]?
A: no binding

B1: AtSNF4 (protein, UniProt Q944A6 1-487)
chain: MFGSTLDSSRGNSAASGQLLTPTRFVWPYGGRRVFLSGSFTRWTEHVPMSPLEGCPTVFQVICNLTPGYHQYKFFVDGEWRHDEHQPFVSGNGGVVNTIFITGPDMVPAGFSPETLGRSNMDVDDVFLRTADPSQEAVPRMSGVDLELSRHRISVLLSTRTAYELLPESGKVIALDVNLPVKQAFHILYEQGIPLAPLWDFGKGQFVGVLGPLDFILILRELGTHGSNLTEEELETHTIAAWKEGKAHISRQYDGSGRPYPRPLVQVGPYDNLKDVALKILQNKVAAVPVIYSSLQDGSYPQLLHLASLSGILKCICRYFRHSSSSLPILQQPICSIPLGTWVPRIGESSSKPLATLRPHASLGSALALLVQAEVSSIPVVDDNDSLIDIYSRSDITALAKDKAYAQIHLDDMTVHQALQLGQDASPPYGIFNGQRCHMCLRSDSLVKVMERLANPGVRRLVIVEAGSKRVEGIISLSDVFQFLLGL
Q: Which binding [6] does the source give for B1 here?
A: no binding

Q: And the binding [7]?
A: no binding

Q: And the binding [8]?
A: no binding

Q: What about the binding [9] of the same molecule?
A: no binding

Q: And the binding [10]?
A: no binding

B2: MYB (v-myb avian myeloblastosis viral oncogene homolog) transcription factor (AtMYB2) (protein, UniProt Q39028 1-273)
chain: MEDYERINSNSPTHEEDSDVRKGPWTEEEDAILVNFVSIHGDARWNHIARSSGLKRTGKSCRLRWLNYLRPDVRRGNITLEEQFMILKLHSLWGNRWSKIAQYLPGRTDNEIKNYWRTRVQKQAKHLRCDVNSNLFKETMRNVWMPRLVERINAQSLPTTCEQVESMITDPSQPVNEPSPVEPGFVQFSQNHHQQFVPATELSATSSNSPAETFSDVRGGVVNGSGYDPSGQTGFGEFNDWGCVGGDNMWTDEESFWFLQDQFCPDTTSYSYN
Q: Which binding [6] does the source give for B2 here?
A: no binding

Q: What about the binding [7] of the same molecule?
A: no binding

Q: And the binding [8]?
A: no binding

Q: And the binding [9]?
A: no binding

Q: And the binding [10]?
A: no binding

B3: AtABI5 (protein, UniProt Q9SJN0 1-442)
chain: MVTRETKLTSEREVESSMAQARHNGGGGGENHPFTSLGRQSSIYSLTLDEFQHALCENGKNFGSMNMDEFLVSIWNAEENNNNQQQAAAAAGSHSVPANHNGFNNNNNNGGEGGVGVFSGGSRGNEDANNKRGIANESSLPRQGSLTLPAPLCRKTVDEVWSEIHRGGGSGNGGDSNGRSSSSNGQNNAQNGGETAARQPTFGEMTLEDFLVKAGVVREHPTNPKPNPNPNQNQNPSSVIPAAAQQQLYGVFQGTGDPSFPGQAMGVGDPSGYAKRTGGGGYQQAPPVQAGVCYGGGVGFGAGGQQMGMVGPLSPVSSDGLGHGQVDNIGGQYGVDMGGLRGRKRVVDGPVEKVVERRQRRMIKNRESAARSRARKQAYTVELEAELNQLKEENAQLKHALAELERKRKQQYFESLKSRAQPKLPKSNGRLRTLMRNPSCPL
Q: Which binding [6] does the source give for B3 here?
A: no binding

Q: And the binding [7]?
A: no binding

Q: And the binding [8]?
A: no binding

Q: And the binding [9]?
A: no binding

Q: What about the binding [10] of the same molecule?
A: no binding

B4: AtCYP707A2 (protein, UniProt O81077 1-482)
chain: MQISSSSSSNFFSSLYADEPALITLTIVVVVVVLLFKWWLHWKEQRLRLPPGSMGLPYIGETLRLYTENPNSFFATRQNKYGDIFKTHILGCPCVMISSPEAARMVLVSKAHLFKPTYPPSKERMIGPEALFFHQGPYHSTLKRLVQSSFMPSALRPTVSHIELLVLQTLSSWTSQKSINTLEYMKRYAFDVAIMSAFGDKEEPTTIDVIKLLYQRLERGYNSMPLDLPGTLFHKSMKARIELSEELRKVIEKRRENGREEGGLLGVLLGAKDQKRNGLSDSQIADNIIGVIFAATDTTASVLTWLLKYLHDHPNLLQEVSREQFSIRQKIKKENRRISWEDTRKMPLTTRVIQETLRAASVLSFTFREAVQDVEYDGYLIPKGWKVLPLFRRIHHSSEFFPDPEKFDPSRFEVAPKPYTYMPFGNGVHSCPGSELAKLEMLILLHHLTTSFRWEVIGDEEGIQYGPFPVPKKGLPIRVTPI
Q: For B4, which binding [6] is on record?
A: no binding

Q: And the binding [7]?
A: no binding

Q: What about the binding [8] of the same molecule?
A: no binding

Q: What about the binding [9] of the same molecule?
A: no binding

Q: And the binding [10]?
A: no binding

Where two headings read alike, the source gives them in different places. Results are given in words; binding and its absence hold for the method and conditions named. For some assays here: Binding calls can cover weak binding; strength is not graded here.
